Source: article PMC4336284
Construct, isoform or probe ends are uncertain for at least one entry. Results from cells or extracts need not show a direct contact.

Chains of the proteins cited; added tags and fusions are not shown. Lines headed by an entry give the natural chain unless they say otherwise; changes in a name come on top.
UniProt P22813: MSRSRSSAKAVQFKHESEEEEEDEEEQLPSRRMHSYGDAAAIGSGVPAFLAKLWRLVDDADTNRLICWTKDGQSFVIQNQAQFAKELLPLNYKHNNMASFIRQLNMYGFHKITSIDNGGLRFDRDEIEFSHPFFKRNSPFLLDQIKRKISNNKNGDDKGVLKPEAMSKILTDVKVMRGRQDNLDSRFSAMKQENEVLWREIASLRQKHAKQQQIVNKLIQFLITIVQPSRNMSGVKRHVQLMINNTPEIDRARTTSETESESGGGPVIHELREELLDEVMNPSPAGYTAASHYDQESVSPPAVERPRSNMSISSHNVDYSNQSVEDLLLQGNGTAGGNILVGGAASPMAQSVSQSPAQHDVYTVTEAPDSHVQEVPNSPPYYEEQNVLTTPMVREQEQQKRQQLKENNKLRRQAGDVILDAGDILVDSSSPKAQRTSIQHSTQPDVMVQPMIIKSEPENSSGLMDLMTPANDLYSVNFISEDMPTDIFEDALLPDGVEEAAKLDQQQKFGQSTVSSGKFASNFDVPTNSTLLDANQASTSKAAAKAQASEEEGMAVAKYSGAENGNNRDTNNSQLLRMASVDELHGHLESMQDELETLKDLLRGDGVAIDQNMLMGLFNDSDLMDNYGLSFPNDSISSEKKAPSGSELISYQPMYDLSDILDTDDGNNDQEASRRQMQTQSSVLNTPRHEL

Molecular target: HSF (heat shock factor) (Drosophila melanogaster) (UniProt P22813)
Assay: EMSA, anti-HSF supershift
Conditions: extracts after heat shock 37 C, poly(dI-dC) 10 ng, 4.5% acrylamide Tris/borate/EDTA gel, HSF: 10 ug extract protein, protein in an extract, label: 32P

Question: Does “ATCCGAGCGCGCCTCGAATGTTCTAGAA / CCTTTTCTAGAACATTCGAGGCGCGCTC [hsp70Aa HSE oligo]” bind?
Answer: binds

Question: Does “CGTTCGAAGCTTCTCGATACATCTACAGAGTTCCAACAGAATGTTCCCG / TAAATCGTCGGGAACATTCTGTTGGAACTCTGTAGATGTATCGAG [hsp70S4 HSE oligo (-94 to -39)]” bind (similar to hsp70Aa)?
Answer: binds

Question: Does “TTTTCGAAGTCTCGACTCTTCTCCAGAGTTCCAACAGAATGTTCCCG / TAAATCGTCGGGAACATTCTGTTGGAACTCTGGAGAAGAGTCGAGAC [hsp70S3 HSE oligo (-94 to -39)]” bind (similar to hsp70Aa)?
Answer: binds
